The full ranking holds about 33,000 sequences; the median of “E-score (-0.5 to 0.5)” is about -0.0014, and the highest 2% start at about 0.25. The list shows a part of the results.
Biological target: T1, Cad1 (UniProt P24813)
T1 sequence: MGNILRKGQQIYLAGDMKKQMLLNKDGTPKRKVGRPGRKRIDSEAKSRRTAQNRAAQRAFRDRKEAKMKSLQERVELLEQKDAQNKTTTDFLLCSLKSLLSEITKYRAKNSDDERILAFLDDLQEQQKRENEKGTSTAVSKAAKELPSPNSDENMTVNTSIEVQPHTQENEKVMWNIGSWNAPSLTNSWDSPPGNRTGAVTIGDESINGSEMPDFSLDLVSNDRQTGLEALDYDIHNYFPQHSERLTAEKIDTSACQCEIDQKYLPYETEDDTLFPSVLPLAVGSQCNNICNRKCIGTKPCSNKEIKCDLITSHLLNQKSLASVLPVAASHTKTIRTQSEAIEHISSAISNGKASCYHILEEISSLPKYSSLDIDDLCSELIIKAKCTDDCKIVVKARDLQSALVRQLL
Assay: PBM E-score (8-mer binding enrichment) (E-score (-0.5 to 0.5)); higher = stronger / more preferred TF binding
Conditions: protein concentration: 100 nM; construct: GST-full length
How it was run: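 GST-tagged yeast TFs (full-length or DNA-binding domain) were made by PURExpress in vitro transcription/translation and applied at about 100-200 nM to universal all-10-mer Agilent arrays. The arrays were made double-stranded by primer extension, on fresh or once-stripped slides. Bound protein was detected with fluorescent anti-GST, and scans were normalised with masliner. Each ungapped eight-base word, pooled with its reverse complement, received an E-score (modified Wilcoxon-Mann-Whitney statistic) from the Universal PBM Analysis Suite.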

| Sequence | PBM E-score |
| --- | --- |
| ATGCAATC | -0.0749 |
| CAGGCCGC | -0.032 |
| GTAAATTA | -0.053 |
| ACCTTCAG | 0.00749 |
| TGGTTACA | -0.0113 |
| ATACCTTC | -0.116 |
| ACCAGAAG | -0.184 |
| ACAGACTA | -0.0715 |
| CCGGCTCA | 0.00399 |
| ATGCCGAG | 0.00416 |
| TACCCACA | 0.00034 |
| GAAACAGA | 0.0699 |
| ATGCCGGA | 0.0312 |
| GGCCGGTA | -0.0294 |
| TAAGGGTA | -0.19 |
| CAATAACC | 0.18 |
| TCTCCCCA | -0.26 |
| ACCCTTCA | -0.0682 |
| CCTTATAG | -0.219 |
| TAGATTGA | 0.00494 |
| ACTAAGCC | 0.199 |
| CCATATCG | 0.0116 |
| CTACCTAC | 0.105 |
| CACAGGTA | -0.0477 |
| AGAAATTA | 0.296 |

| Sequence | PBM E-score |
| --- | --- |
| AGAGGAGA | -0.305 |
| CAACGAAC | 0.114 |
| AACTACTT | -0.106 |
| CAAGCGGG | -0.183 |
| GGGGTCAC | -0.266 |
| GTGGAACA | 0.125 |
| CTGCCGGC | -0.00247 |
| CGACAGAG | -0.138 |
| AAGACTGG | -0.046 |
| CGAGTCCG | 0.0505 |
| TACTAAGA | 0.214 |
| AGATAGGC | -0.124 |
| CCTCGTCG | 0.0394 |
| CAGGGGTC | -0.245 |
| TGGAGCCA | -0.106 |
| ACCACAGC | 0.0415 |
| CTGCGGAC | 0.0703 |
| CTAGTTAA | 0.045 |
| AACTCGGC | 0.125 |
| GGGTCCAC | -0.396 |
| ACTGCAGA | -0.0799 |
| CTGGAAAA | 0.105 |
| CCCCCGGG | -0.353 |
| TCGTGACA | -0.119 |
| CATACCTA | -0.141 |

| Sequence | PBM E-score |
| --- | --- |
| ACGTGCCG | 0.0297 |
| CAATAGAG | -0.28 |
| AGCACGGG | -0.039 |
| GAGGTGGA | -0.321 |
| GCCGAGGA | 0.106 |
| ACCGAAGG | -0.00102 |
| CGCGTAGA | 0.126 |
| AGAAGTAT | 0.116 |
| GGAGCAGA | -0.126 |
| AGAAGGTC | -0.0648 |
| CTTCATGC | -0.089 |
| AGCGTCAC | -0.0342 |
| CTTGACCC | -0.212 |
| AGATCAGG | -0.128 |
| GTTCTATA | 0.131 |
| TAAAGTAA | -0.126 |
| ACCTCAAG | -0.112 |
| CATTGAAC | 0.037 |
| AATGACAT | 0.157 |
| CCCATAGA | -0.262 |
| CGCTAAAA | 0.0433 |
| GTGCGCAC | 0.227 |
| ACATCGGT | -0.151 |
| AAGAGCAA | -0.182 |
| GAAAGTAA | 0.0461 |

| Sequence | PBM E-score |
| --- | --- |
| AAGTGACG | 0.101 |
| ACCGCCAG | 0.0409 |
| CCAGCATA | 0.0601 |
| ACACTTCA | 0.114 |
| CTTCAGGA | -0.128 |
| AGTCAAAA | -0.104 |
| AGAGCTCG | 0.0148 |
| AGGCTTGC | -0.138 |
| GTCTCGGA | 0.00393 |
| CCTGATAG | -0.124 |
| ATCGGTCC | -0.165 |
| TGGGATAA | 0.0101 |
| ACTTTACC | 0.24 |
| TCCTAGGA | -0.106 |
| GATATTCC | 0.0127 |
| GGCGCGTA | -0.0178 |
| CCCCCCTA | -0.331 |
| CGCATATA | -0.0685 |
| TATGCACA | 0.0954 |
| ATGATTCC | 0.13 |
| GAGTCGAA | -0.0226 |
| CCGCTCTA | -0.0465 |
| AGGAGGAC | -0.365 |
| CATAGTTC | -0.00622 |
| CGAACACC | 0.0436 |

| Sequence | PBM E-score |
| --- | --- |
| CTGGGGGA | -0.306 |
| CAATGGGG | -0.253 |
| ATATAATC | 0.0826 |
| AACCACGG | -0.142 |
| GCATGGCC | -0.149 |
| TCGTACGA | 0.0272 |
| GCCTTCCC | -0.289 |
| CGGCATTA | 0.117 |
| ATTGGGCC | 0.146 |
| CCCAGCGG | -0.264 |
| ACAGTCCG | -0.133 |
| ACCCTATG | -0.0459 |
| CGTATTAA | 0.0596 |
| GCGGGGCC | -0.198 |
| CAGCCCAC | -0.0145 |
| ACTCTCGA | 0.141 |
| AGCTAGGG | 0.0124 |
| CTTCTTAC | 0.0798 |
| AAAGCTGT | -0.011 |
| GCCAATAA | 0.133 |
| ACTAAGTC | 0.103 |
| TATAAAGA | -0.0447 |
| CCCGGCCC | -0.27 |
| ACTATCGC | 0.218 |
| AACCTACC | -0.252 |

| Sequence | PBM E-score |
| --- | --- |
| AACCATCC | 0.0325 |
| AATACGAG | 0.1 |
| AATGAACG | 0.0563 |
| CAGGCTCC | -0.0824 |
| AACAAAAT | 0.123 |
| AGGGCGCC | -0.1 |
| GATATAGA | 0.106 |
| CATACGGC | 0.0544 |
| AAACCGTA | 0.0364 |
| AATCATCC | -0.0051 |
| ATTCGCTA | -0.172 |
| CGATAGCA | -0.147 |
| ATGATCTA | 0.124 |
| CTCATCAA | -0.0643 |
| ACGGTTGG | -0.114 |
| CTCAACCA | -0.0185 |
| CGACCCCA | -0.0633 |
| AGGCTAGA | -0.244 |
| CTGTCTGC | -0.166 |
| CCTTCTAG | -0.162 |
| ACCAGTAC | 0.096 |
| ACTAGGCT | -0.0722 |
| CACGCACC | 0.0248 |
| AGTGGAAC | -0.0497 |
| CTGGGTAC | -0.194 |

| Sequence | PBM E-score |
| --- | --- |
| AGCGAACC | 0.0061 |
| AGGTCACT | -0.145 |
| ACGGTAGG | -0.208 |
| TCCGTAGA | -0.0821 |
| TAAACCTA | -0.00574 |
| CAGGCTTA | 0.0113 |
| GAGGTTGA | -0.0429 |
| CGGTTAAA | -0.148 |
| ACTGCATC | -0.00501 |
| ATTATAAA | 0.276 |
| CCTAGCGA | -0.123 |
| CAGACCAC | -0.00956 |
| TACCGAGA | 0.00984 |
| AAGCCCCG | -0.153 |
| AATTTGAC | 0.24 |
| GACTCAGA | 0.0638 |
| GCAGAGAC | -0.268 |
| GAGTACGC | -0.178 |
| TTGAGCAA | -0.0596 |
| AATCCCTG | -0.0461 |
| ATGAGGTG | -0.0935 |
| GCAGGGTA | -9e-05 |

Looked up above.
PBM E-score, TATGCACA is entered as 0.0954
PBM E-score, CAGACCAC is entered as -0.00956
PBM E-score, CGGTTAAA is entered as -0.148
PBM E-score, GTTCTATA is entered as 0.131
PBM E-score, ACCACAGC is entered as 0.0415
PBM E-score, AGCGAACC is entered as 0.0061

Given as labelled records: entries from further up.
GAAAGTAA
  PBM E-score = 0.0461
AAGTGACG
  PBM E-score = 0.101
ACCGCCAG
  PBM E-score = 0.0409

From the supplement of paper PMC3334620
